Test system: hippocampal slices, CA1 area
Format: cell-based

CN1[C@@H]2CC[C@H]1C[C@@H](OC(=O)C(CO)c1ccccc1)C2 (stereo partly shown) [atropine]
excitation response under co-exposure with physostigmine: absence of excitation response
